This test can be described thus: qHTS Assay to Find Inhibitors of Chronic Active B-Cell Receptor Signaling. To be noted: ABC-DLBCL IkBa-CBG/CBR reporter, luminescence ratio (green luciferase fused to IkBa over red control in TMD8 lymphoma cells), 4 h. The procedure, abridged:
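Compounds up to 46 uM were incubated four hours with TMD8 cells whose green CBG68 luciferase is fused to IkappaBalpha; red CBR luminescence normalised the signal, and concentration-effect curves were fitted to fusion, red and ratio data.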

Where [1] appears, read: measured here: CBR red luminescence, cell number.
The mark [2] stands for this setting: measured here: IkBa-CBG green luminescence.

This note sets out measurements from PubChem BioAssay AID493014 (National Center for Advancing Translational Sciences (NCATS), 2011).

Structures are written as SMILES. The list shows a part of the results. These are further read-outs of the screen, such as a control signal, another cell line or another target. No call is given for them. The list favours compounds with an active or inconclusive main result. The note in brackets gives the kind of curve behind each potency; many fits are weak.

For `COc1ccc(C(=O)c2ccc(OC)c(OC)c2)cc1`, the AC50 under setting [1] was 3.26 µM [rising, partial curve, poor fit].
Same read-out and setting: for `CCN(C(=O)c1cc2c(s1)-c1ccccc1OC2)c1cc(OC)ccc1OC` the value was 35.5 µM [falling, single point].
The same measure, in the same setting: the same measure for `O=C(NCc1ccc(Cl)cc1)C(=O)NCC1CCCN1S(=O)(=O)c1cccs1` (stereo not drawn): 29.1 µM [rising, single point].
Still for that read-out and setting: the same measure for `CN(C(=O)COC(=O)c1ccc([N+](=O)[O-])cc1N)c1ccccc1`: 35.5 µM [rising, single point]; for `O=C(OCc1cncs1)c1ccccc1`: 14.1 µM [rising, partial curve, poor fit].
For `O=C(CSCCS(=O)(=O)c1ccc(Cl)cc1)Nc1ccccc1`, the AC50 under setting [1] was 11.2 µM [rising, single point].
Still for that read-out and setting: the same measure for `O=C1CS/C(=N/N=C/c2cccs2)N1`: 3.55 µM [rising, full curve, poor fit].
On to `COc1ccc(C(=O)CN2C(=O)c3ccccc3C2=O)cc1`, for which the AC50 under setting [1] was 35.5 µM [falling, single point].
Same read-out and setting: for `COc1ccccc1/C=C/C=N/n1c(-c2ccco2)n[nH]c1=S` the value was 20 µM [falling, partial curve].
In the case of `Oc1ccc(/C=N/NC(=S)NCCN2CCOCC2)c(O)c1`, the concentration at half-maximal activity (AC50) under setting [1] is 35.5 µM [falling, single point].
As to `COC(=O)c1sc(NC(=O)Cc2cccs2)nc1C`, the AC50 under setting [1] was 29.1 µM [falling, single point].
Still for that read-out and setting: the same measure for `COc1ccc(Cl)cc1NC(=O)C1COc2ccccc2O1` (stereo not drawn): 1.12 µM [rising, full curve, poor fit].
Same read-out and setting: the same measure for `COc1ccc(Cl)cc1CSc1n[nH]c(C)n1`: 23.1 µM [rising, partial curve].
The same measure, in the same setting: for `Cc1ccc(NC(=O)C2=C(c3ccccc3)S(=O)(=O)CCS2(=O)=O)cc1` the value was 2.24 µM [falling, full curve].
As for `Oc1ccccc1/C=N/n1cnnc1`, under setting [1], the concentration at half-maximal activity (AC50) is 20.6 µM [falling, partial curve, poor fit].
Same read-out and setting: the same measure for `CCN(CC)S(=O)(=O)c1ccc(C(=O)NCc2ccc3c(c2)OCO3)cc1`: 1.12 µM [falling, full curve, poor fit]; for `Cc1nnc(SCC(=O)N(C)C2CCCCC2)s1`: 0.316 µM [rising, full curve, poor fit]; for `CC(C)Cn1nc(NC(=O)C(C)(C)C)c2cc3ccccc3nc21`: 22.4 µM [falling, single point].
Still for that read-out and setting: the same measure for `CN(C)c1ccc(CNc2nc3ccccc3s2)cc1`: 0.316 µM [rising, full curve, poor fit]; for `CN1CCN(C(=O)c2ccc(COc3cc(Cl)ccc3Cl)o2)CC1`: 0.447 µM [falling, full curve, poor fit].
Turning to `CCCn1nnc(NC(=S)NC(=O)Cc2ccccc2)n1`, the AC50 reads like this: under setting [1], 4.47 µM [falling, full curve]; under setting [2], 1.78 µM [falling, partial curve, poor fit].
Regarding `Cc1ccc2nc(NC(=O)C3CCCN(S(=O)(=O)c4cccc5nsnc45)C3)sc2c1` (stereo not drawn), the AC50 under setting [1] is 10 µM [falling, partial curve, poor fit].
Still for that read-out and setting: for `CCn1ccnc1CN1CCc2c([nH]c3ccccc23)C1C1CCCCC1` (stereo not drawn) the value was 15.8 µM [falling, single point].
Still for that read-out and setting: for `O=C(NNC(=O)c1n[nH]c2ccccc12)c1ccccc1` the value was 13 µM [falling, partial curve].
Turning to `CC(=O)Oc1ccccc1N(C(C)=O)S(=O)(=O)c1ccc2ccccc2c1`, the concentration at half-maximal activity (AC50) under setting [2] is 28.2 µM [falling, single point].
Take `COc1ccc(NCC(=O)Nc2ccc(C#N)cc2)cc1Cl`: the AC50 under setting [1] was 0.517 µM [rising, full curve].
On the same count and under the same terms, the same measure for `CC(=O)Nc1ccc(NC(=O)CSc2nnc(NC(=O)c3cccc(F)c3)s2)cc1`: 12.6 µM [falling, single point]; for `Cc1ccc(NC(=O)c2ccc(F)c(S(=O)(=O)NCCc3ccccc3)c2)cc1F`: 10 µM [falling, partial curve, poor fit]; for `O=C(Cn1nnc(-c2ccccc2Cl)n1)NCc1ccc2c(c1)OCO2`: 2.59 µM [falling, full curve].
On the same count and under the same terms, for `CCOc1ccc(-n2c(SCC(=O)Nc3ccc(Br)cc3)nc3n[nH]c(C)c3c2=N)cc1` the value was 22.4 µM [rising, single point]; for `C=CCOc1ccc(/C(CC)=N/O)c(OC)c1`, 11.6 µM [rising, partial curve]; for `Cc1c(Cl)cccc1N(Cc1ccc(C(=O)O)cc1)S(=O)(=O)c1ccccc1`, 35.5 µM [rising, single point].
In the case of `CCN1CCN(c2nc(Nc3ccccc3)nc(N)c2[N+](=O)[O-])CC1`, the AC50 under setting [1] is 32.6 µM [rising, partial curve, poor fit].
Consider `CCOc1ccc2nc(N(Cc3cccnc3)C(=O)c3ccco3)sc2c1`, for which the AC50 under setting [1] was 3.16 µM [rising, partial curve, poor fit].
The same measure, in the same setting: the same measure for `CC(C)(C)C(=O)Nc1ccc(C(=O)NNC(=O)c2ccccc2)cc1`: 35.5 µM [rising, single point]; for `O=C(COc1ccccc1)NC(NC(=S)Nc1ccccc1O)C(Cl)(Cl)Cl` (stereo not drawn): 11.2 µM [falling, partial curve, poor fit].
In the case of `Cc1cc(C(=O)NNC(=S)Nc2ccccc2)nn1C`, the AC50 under setting [1] is 10 µM [falling, partial curve].
As to `CCOCC(=O)Nc1cc(C(=O)NCCc2ccccc2)ccc1Cl`, the AC50 under setting [1] is 11.2 µM [falling, partial curve].
Same read-out and setting: the same measure for `CCc1ccc(C(CNC(=O)c2ccc3c(=O)n(-c4ccccc4F)c(=S)[nH]c3c2)N(C)C)cc1` (stereo not drawn): 12.6 µM [falling, single point]; for `CN1CCN(C(=O)c2ccc3nc(-c4ccccc4)c(-c4ccccc4)nc3c2)CC1`: 35.5 µM [falling, single point]; for `COc1cc2c(cc1OC)[C@@H](NC(=O)CCc1ccccc1)[C@H](O)C2`: 20.6 µM [rising, partial curve, poor fit].
The same measure, in the same setting: the same measure for `CCN(C(=O)COC(=O)c1cccnc1Nc1ccccc1F)C1CCS(=O)(=O)C1` (stereo not drawn): 0.411 µM [falling, full curve]; for `COc1ccc(C(C)=O)cc1COc1ccccc1[N+](=O)[O-]`: 2.24 µM [rising, full curve, poor fit]; for `Cc1ccc(C(=O)N2CCC(Cc3ccccc3)CC2)cc1[N+](=O)[O-]`: 17.8 µM [falling, partial curve, poor fit].
As for `CN1C(=O)/C(=C\c2ccccc2F)Sc2ccc(C(=O)NC3CCN(Cc4ccccc4)CC3)cc21`, under setting [1], the AC50 is 35.5 µM [falling, single point].
For the molecule `c1ccc(OCCCCn2cnc3ccccc32)cc1`, under setting [1], the AC50 is 7.31 µM [rising, partial curve, poor fit].
On the same count and under the same terms, the same measure for `Cc1nonc1C(=O)N/N=C/c1ccncc1`: 15.8 µM [falling, partial curve, poor fit]; for `C=CC[C@H](CC(=O)OC(C)(C)C)C(=O)OC[C@@H]1CCCN1C(=O)[C@@H](CC=C)CC(=O)NCCO`: 32.6 µM [rising, single point].
As to `O=C(CSc1nc(-c2ccc(F)cc2)cs1)N1CCc2ccccc21`, the AC50 under setting [1] is 0.891 µM [rising, full curve].
For `COc1ccc(C(=O)NC(Nc2ccc(C)cc2)C(Cl)(Cl)Cl)cc1` (stereo not drawn), the AC50 was 23.1 µM [falling, single point] under setting [1] and 29.1 µM [rising, partial curve, poor fit] under setting [2].
For the molecule `c1ccc(C[C@H]2CN=C(Nc3ccccc3)N2CCC2CCCC2)cc1`, under setting [1], the AC50 is 14.6 µM [falling, partial curve, poor fit].
On the same count and under the same terms, the same measure for `COc1ccccc1Nc1nnc(SCc2cc(=O)n3ccsc3n2)s1`: 35.5 µM [falling, single point]; for `O=C(CNC(=O)c1ccc(Br)cc1)N=Nc1c(O)[nH]c2ccc([N+](=O)[O-])cc12`: 0.112 µM [falling, full curve, poor fit]; for `O=C(NCC1COc2ccccc2O1)c1ccco1` (stereo not drawn): 5.62 µM [rising, single point].
Turning to `Cc1ccc(S(=O)(=O)CCSC(=N)N)cc1`, the AC50 was 5.01 µM [falling, partial curve] under setting [1] and 20 µM [falling, single point] under setting [2].
Regarding `CCCC(=O)Nc1cc(-c2nc3ncccc3o2)ccc1C`, the AC50 under setting [1] was 10.3 µM [rising, partial curve].
Turning to `CCOC(=O)N1CCN(c2c(NCCN3CCN(Cc4ccccc4)CC3)c(=O)c2=O)CC1`, under setting [1], the AC50 is 6.51 µM [rising, single point].
For `COc1ccc(Cl)cc1/C=C/c1ccc2cccc(O)c2n1`, the concentration at half-maximal activity (AC50) was 6.31 µM [rising, partial curve, poor fit] under setting [1] and 11.2 µM [falling, partial curve, poor fit] under setting [2].
Take `c1ccc(-c2nc(-c3ccc(-c4ccon4)s3)no2)cc1`: the half-maximal activity concentration (AC50) under setting [1] is 6.31 µM [falling, full curve, poor fit].
The same measure, in the same setting: for `COC(=O)c1ccc(CSc2ccccc2C)o1` the value was 17.8 µM [falling, partial curve, poor fit].
As to `COc1nccc(-c2ccc(F)cc2)c1C#N`, the AC50 under setting [1] was 1.41 µM [falling, partial curve, poor fit].
On to `CCOc1nc(C)ccc1-c1noc(-c2cccnc2)n1`, for which the AC50 under setting [1] was 3.16 µM [rising, partial curve, poor fit].
Still for that read-out and setting: the same measure for `Cc1nc(NC(=O)/C=C/c2ccc(Cl)cc2Cl)sc1C(=O)N(C)C`: 20.6 µM [falling, single point]; for `O=C(CSc1ncn[nH]1)N1N=C2/C(=C/c3ccco3)CCCC2C1c1ccco1` (stereo not drawn): 23.1 µM [falling, single point].

By AC50 is commonly meant the concentration giving half of the maximal activity seen.
